Measurements reported in PubChem BioAssay AID1259289 (Sanger Institute, 2017).

Assay: 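Kinases that bowel cancer cells need to survive, with or without BYL719, cetuximab, trametinib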 (primary screen)
System: human LS513 colorectal cancer cells
Reagents: siRNA pool against human genes
Treatment: anchor drug BYL719 at 1 µM, cetuximab at 5 µg/ml or trametinib at 10 nM, or DMSO vehicle alone; exposure time not given
Measurement: 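Survival versus non-targeting pool for each arm averaged over replicates, robust z-score in the arm with DMSO only, and synergy scores for BYL719, cetuximab or trametinib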
Direction: robust z-score, siRNA alone (DMSO): higher = more viable cells; strongly negative means essential; viability with DMSO vs control: higher = more viable cells; synergy score with BYL719: higher = stronger combined killing with BYL719; synergy score with cetuximab: higher = stronger combined killing with cetuximab; synergy score with trametinib: higher = stronger combined killing with trametinib
Call rule: 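Called essential when silencing alone under DMSO gives a robust z-score below -3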
Calls: active = essential (knock-down alone); inactive = not essential
Here is an unselected part of 794 deposited reagents. 16 of all reagents (2%) count as active. 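Active marks cell loss from silencing alone; drug synergy shows only in the synergy scores, not the calls.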 Viability is capped at 1. Not stated in the record: the amount of reagent, the time to read-out.

gene symbol | robust z-score, siRNA alone (DMSO) | viability with DMSO vs control (fraction of control) | synergy score with BYL719 | synergy score with cetuximab | synergy score with trametinib | Call
GRK1 (G protein-coupled receptor kinase 1) | 0.561 | 1 | -0.0712 | -0.0968 | -0.104 | inactive
CDK17 (cyclin dependent kinase 17) | 0.561 | 1 | -0.134 | 0.0676 | 0.0242 | inactive
SRMS | -0.161 | 0.898 | 0.0514 | 0.0284 | 0.0427 | inactive
PAK5 (p21 (RAC1) activated kinase 5) | -1.25 | 0.743 | -0.0861 | 0.0628 | 0.0397 | inactive
ROR2 (ROR family WNT receptor 2) | 0.561 | 1 | -0.117 | 0.0158 | 0.0358 | inactive
LYN (LYN proto-oncogene, Src family tyrosine kinase) | 0.561 | 1 | 0.159 | 0.213 | 0.0368 | inactive
CSNK1A1 (casein kinase 1 alpha 1) | 0.561 | 1 | 0.00284 | -0.0968 | -0.0605 | inactive
STK32A (serine/threonine kinase 32A) | 0.561 | 1 | -0.134 | -0.0407 | -0.0396 | inactive
BTK (Bruton tyrosine kinase) | 0.561 | 1 | -0.106 | 0.0128 | -0.0374 | inactive
CDK7 (cyclin dependent kinase 7) | -0.0962 | 0.907 | -0.0359 | -0.0223 | -0.0589 | inactive
GRK7 (G protein-coupled receptor kinase 7) | -0.737 | 0.816 | 0.0588 | 0.000998 | -0.0434 | inactive
ATM (ATM serine/threonine kinase) | 0.225 | 0.952 | 0.0856 | -0.0144 | -0.0403 | inactive
PRKCD (protein kinase C delta) | -1.24 | 0.744 | -0.0421 | -0.0878 | -0.0973 | inactive
CAMK1D (calcium/calmodulin dependent protein kinase ID) | 0.561 | 1 | -0.0693 | 0.0759 | 0.0322 | inactive
ITSN1 (intersectin 1) | -2.1 | 0.622 | 0.0391 | -0.0675 | -0.0176 | inactive
MAP2K4 (mitogen-activated protein kinase kinase 4) | 0.561 | 1 | 0.0455 | -0.00604 | -0.0365 | inactive
MECOM (MDS1 and EVI1 complex locus) | 0.561 | 1 | -0.0323 | -0.0968 | 0.00276 | inactive
IKBKB (inhibitor of nuclear factor kappa B kinase subunit beta) | 0.561 | 1 | -0.0209 | -0.0874 | 0.0544 | inactive
AXIN2 (axin 2) | 0.561 | 1 | -0.128 | 0.0118 | 0.0151 | inactive
FN3K (fructosamine 3 kinase) | 0.561 | 1 | -0.00606 | -0.0869 | 0.0955 | inactive
STK35 (serine/threonine kinase 35) | 0.561 | 1 | 0.000869 | 0.0444 | 0.0252 | inactive
ELP1 (elongator acetyltransferase complex subunit 1) | 0.561 | 1 | -0.134 | -0.0968 | 0.00219 | inactive
RPS6KB1 (ribosomal protein S6 kinase B1) | -1.96 | 0.642 | 0.0177 | 0.0756 | -0.0317 | inactive
GRK5 (G protein-coupled receptor kinase 5) | 0.561 | 1 | -0.0379 | -0.0424 | 0.044 | inactive
CHD4 (chromodomain helicase DNA binding protein 4) | -3.76 | 0.387 | 0.0219 | 0.167 | 0.0156 | active
HUNK (hormonally up-regulated Neu-associated kinase) | -2.51 | 0.565 | -0.0584 | 0.103 | 0.0295 | inactive
CDK18 (cyclin dependent kinase 18) | -3.27 | 0.456 | -0.256 | -0.148 | -0.0387 | active
RBM10 (RNA binding motif protein 10) | -1.27 | 0.74 | -0.0677 | 0.0458 | 0.021 | inactive
IDH2 (isocitrate dehydrogenase (NADP(+)) 2) | 0.561 | 1 | -0.00947 | -0.0968 | -0.0629 | inactive
NPR2 (natriuretic peptide receptor 2) | 0.561 | 1 | -0.134 | -0.0968 | -0.0562 | inactive
GUCY2EP (guanylate cyclase 2E, pseudogene) | 0.561 | 1 | 0.0792 | -0.0371 | 0.0472 | inactive
MYLK2 (myosin light chain kinase 2) | -0.175 | 0.896 | 0.0324 | 0.0683 | 0.0701 | inactive
PFKFB2 (6-phosphofructo-2-kinase/fructose-2,6-biphosphatase 2) | 0.561 | 1 | 0.073 | -0.0845 | 0.0751 | inactive
ADCK1 (aarF domain containing kinase 1) | 0.561 | 1 | 0.151 | -0.0968 | 0.0184 | inactive
TP53BP1 (tumor protein p53 binding protein 1) | 0.561 | 1 | -0.134 | -0.0968 | 0.0158 | inactive
TYRO3 (TYRO3 protein tyrosine kinase) | -0.453 | 0.856 | -0.00507 | 0.246 | 0.00998 | inactive
TGFBR3 (transforming growth factor beta receptor 3) | 0.561 | 1 | -0.134 | -0.0968 | 0.00629 | inactive
MAPK6 (mitogen-activated protein kinase 6) | 0.209 | 0.95 | 0.00412 | 0.187 | 0.0334 | inactive
PAK3 (p21 (RAC1) activated kinase 3) | -0.825 | 0.803 | 0.0967 | 0.154 | -0.0428 | inactive
MAGI3 | 0.561 | 1 | -0.0779 | -0.0968 | -0.0131 | inactive
PRKAR1B (protein kinase cAMP-dependent type I regulatory subunit beta) | -0.564 | 0.84 | 0.0762 | 0.14 | -0.0185 | inactive
PRKAG3 (protein kinase AMP-activated non-catalytic subunit gamma 3) | -2.53 | 0.562 | -0.0538 | -0.0695 | -0.0422 | inactive
TAF1 (TATA-box binding protein associated factor 1) | -0.249 | 0.885 | -0.125 | 0.0753 | 0.0167 | inactive
LATS1 (large tumor suppressor kinase 1) | -0.217 | 0.89 | 0.0201 | -0.0176 | 0.0454 | inactive
EPHA3 (EPH receptor A3) | -1.94 | 0.644 | 0.0895 | 0.0691 | -0.0173 | inactive
PFKFB4 (6-phosphofructo-2-kinase/fructose-2,6-biphosphatase 4) | 0.561 | 1 | -0.107 | -0.0968 | 0.0499 | inactive
SOX9 (SRY-box transcription factor 9) | 0.561 | 1 | -0.026 | 0.0208 | -0.0308 | inactive
TEC (tec protein tyrosine kinase) | 0.561 | 1 | -0.113 | -0.0968 | 0.0289 | inactive
IPPK (inositol-pentakisphosphate 2-kinase) | -0.678 | 0.824 | 0.171 | 0.172 | 0.0411 | inactive
IRAK3 (interleukin 1 receptor associated kinase 3) | -1.88 | 0.653 | -0.012 | 0.0698 | 0.0349 | inactive

7 entries from above, reduced to “robust z-score, siRNA alone (DMSO)”:
TAF1 (TATA-box binding protein associated factor 1)	-0.249
LATS1 (large tumor suppressor kinase 1)	-0.217
EPHA3 (EPH receptor A3)	-1.94
PFKFB4 (6-phosphofructo-2-kinase/fructose-2,6-biphosphatase 4)	0.561
SOX9 (SRY-box transcription factor 9)	0.561
TEC (tec protein tyrosine kinase)	0.561
IPPK (inositol-pentakisphosphate 2-kinase)	-0.678
